Experimental data taken from patent publication US20030162221A1.
Results are given in words; binding and its absence hold for the method and conditions named. In cells and extracts the contact can be indirect. Some results given as binding are weak or reduced against the parent protein; the word gives no strength. Tags and fused reporters may be left off the sequences shown.

Assays:
[1] = biological target: T1, Mms2 (Saccharomyces cerevisiae) (UniProt P53152); assay: anti-FLAG co-IP, LC-MS/MS
T1 sequence (looked up): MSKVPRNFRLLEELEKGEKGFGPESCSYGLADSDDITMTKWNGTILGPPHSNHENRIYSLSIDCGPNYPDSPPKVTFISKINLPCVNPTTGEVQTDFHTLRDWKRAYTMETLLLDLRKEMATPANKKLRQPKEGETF

[2] = biological target: T2, Rad18 (Saccharomyces cerevisiae) (UniProt P10862); assay: anti-FLAG co-IP, LC-MS/MS
T2 sequence (looked up): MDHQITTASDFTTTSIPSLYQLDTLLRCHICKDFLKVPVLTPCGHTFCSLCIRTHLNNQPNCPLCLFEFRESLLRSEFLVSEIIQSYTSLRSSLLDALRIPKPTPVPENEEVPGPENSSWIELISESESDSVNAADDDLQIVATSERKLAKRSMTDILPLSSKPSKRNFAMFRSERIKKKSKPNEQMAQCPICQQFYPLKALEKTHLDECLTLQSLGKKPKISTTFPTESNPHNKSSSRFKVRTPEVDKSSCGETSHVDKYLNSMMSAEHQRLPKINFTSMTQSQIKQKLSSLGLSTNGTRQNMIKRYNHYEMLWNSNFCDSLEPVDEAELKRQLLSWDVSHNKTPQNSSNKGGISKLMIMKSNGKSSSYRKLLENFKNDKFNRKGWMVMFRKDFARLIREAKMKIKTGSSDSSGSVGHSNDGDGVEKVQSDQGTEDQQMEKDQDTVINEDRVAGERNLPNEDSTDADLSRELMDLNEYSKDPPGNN

[3] = biological target: T2, Rad18 (Saccharomyces cerevisiae); assay: anti-FLAG co-IP, LC-MS/MS; pair by Table 2

Measured: binding

B1: Ubc13 (protein, Saccharomyces cerevisiae, UniProt P52490 1-153, looked up)
chain: MASLPKRIIKETEKLVSDPVPGITAEPHDDNLRYFQVTIEGPEQSPYEDGIFELELYLPDDYPMEAPKVRFLTKIYHPNIDRLGRICLDVLKTNWSPALQIRTVLLSIQALLASPNPNDPLANDVAEDWIKNEQGAKAKAREWTKLYAKKKPE
binds: all assays above
